# Data as given in PubChem BioAssay AID1053208 (Peter MacCallum Cancer Centre, 2014).
# Test: 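Synthetic lethal interactions between gene loss and doxorubicin in osteosarcoma cells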 (primary screen)
# System: mouse osteosarcoma cells, early-passage culture from an engineered mouse model of fibroblastic bone tumour
# Knock-down reagent: siRNA pool against mouse genes, 40 nM
# Timing: about 120 h (48 h before drug, then 72 h with drug)
# Conditions: doxorubicin 100 nM for 72 h, roughly 30-40% inhibitory dose
# Measured: 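Luminescent ATP signal taken as viability with or without 100 nM doxorubicin for 72 h; mean of two wells set against non-targeting siRNA and turned into robust z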
# Scale: viability z-score with doxorubicin and doxorubicin viability vs non-targeting: higher = more viable cells under doxorubicin; viability z-score without drug: higher = more viable cells with knock-down alone; z-score of drug to no-drug ratio: higher = less drug sensitisation by knock-down
# Call rule: 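a pool counts as active when its viability z-score with doxorubicin is -2 or below and its z-score without drug lies between -2 and 2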
# The whole screen tested about 17,000 reagents; this is an unselected part. 788 of all reagents (4.7%) count as active. 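Calls rest on z-score classes alone; an extra cut-off of viability at most 70% of control was not applied to them.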
Target gene,combined z-score class,viability z-score with doxorubicin,viability z-score without drug,z-score of drug to no-drug ratio,doxorubicin viability vs non-targeting,Call
Nrf1 (nuclear respiratory factor 1),no change with or without drug,0.67,-0.34,1.12,1,inactive
Banf1 (BAF nuclear assembly factor 1),no change with or without drug,-1.69,-1.18,-0.9,0.79,inactive
"Pkmyt1 (protein kinase, membrane associated tyrosine/threonine 1)",no change with or without drug,-0.34,-1.35,0.79,0.91,inactive
Axin2 (axin 2),no change with or without drug,-0.22,0.67,-0.56,0.92,inactive
Cd4 (CD4 antigen),no change with or without drug,-0.9,-1.69,0.34,0.86,inactive
Ttc5 (tetratricopeptide repeat domain 5),no change with or without drug,-0.45,0,-0.34,0.9,inactive
Hsf1 (heat shock factor 1),no change with or without drug,-0.22,1.18,-0.9,0.92,inactive
Or8k30 (olfactory receptor family 8 subfamily K member 30),no change with or without drug,1.8,-0.51,2.47,1.1,inactive
"Grm5 (glutamate receptor, metabotropic 5)",no change with or without drug,0.67,-0.84,1.46,1,inactive
Snrnp48 (small nuclear ribonucleoprotein 48 (U11/U12)),no change with or without drug,0.22,1.18,-0.45,0.96,inactive
Slc8a2,no change with or without drug,0,0.17,0,0.94,inactive
Mtch1,no change with or without drug,-0.45,0.67,-0.79,0.9,inactive
"Card11 (caspase recruitment domain family, member 11)",low cell count with doxorubicin only,-2.25,-0.17,-2.14,0.74,active
"Oprk1 (opioid receptor, kappa 1)",no change with or without drug,-0.45,0.67,-0.79,0.9,inactive
Grid2ip,no change with or without drug,0,-0.51,0.45,0.94,inactive
Cnmd (chondromodulin),no change with or without drug,0.79,0.17,0.79,1.01,inactive
Tatdn1 (TatD DNase domain containing 1),no change with or without drug,0.67,-0.67,1.35,1,inactive
Ndufb5 (NADH:ubiquinone oxidoreductase subunit B5),no change with or without drug,0.45,-0.84,1.24,0.98,inactive
Arf5 (ARF GTPase 5),no change with or without drug,-0.79,-1.18,0.11,0.87,inactive
"Pign (phosphatidylinositol glycan anchor biosynthesis, class N)",no change with or without drug,0.9,1.18,0.22,1.02,inactive
Ccdc54 (coiled-coil domain containing 54),no change with or without drug,-0.11,1.18,-0.79,0.93,inactive
Srsf4 (serine and arginine-rich splicing factor 4),no change with or without drug,0.11,1.85,-0.9,0.95,inactive
Inhbb (inhibin beta-B),no change with or without drug,0.45,0.84,0,0.98,inactive
"Pkia (protein kinase inhibitor, alpha)",high cell count without drug only,0.45,2.36,-0.9,0.98,inactive
Zfp786 (zinc finger protein 786),no change with or without drug,-0.34,-0.51,0.11,0.91,inactive
"Ppp4c (protein phosphatase 4, catalytic subunit)",low cell count with and without drug,-2.02,-2.87,-0.11,0.76,inactive
"Wipf2 (WAS/WASL interacting protein family, member 2)",low cell count with doxorubicin only,-2.59,0,-2.59,0.71,active
Tesc (tescalcin),no change with or without drug,1.12,0.51,0.9,1.04,inactive
Gpa33 (glycoprotein A33 transmembrane),no change with or without drug,1.91,-0.17,2.25,1.11,inactive
"Src (src proto-oncogene, non-receptor tyrosine kinase)",no change with or without drug,1.57,1.35,0.79,1.08,inactive
C230012O17Rik (RIKEN cDNA C230012O17 gene),no change with or without drug,0.56,1.85,-0.56,0.99,inactive
"Tubg2 (tubulin, gamma 2)",no change with or without drug,-1.12,-1.52,0,0.84,inactive
Ccdc142 (coiled-coil domain containing 142),no change with or without drug,0.11,-1.52,1.35,0.95,inactive
"Cyp2d9 (cytochrome P450, family 2, subfamily d, polypeptide 9)",no change with or without drug,-1.35,-0.34,-1.12,0.82,inactive

Reformatted: entries from further up
{"Target gene":"Srsf4 (serine and arginine-rich splicing factor 4)","combined z-score class":"no change with or without drug","viability z-score with doxorubicin":0.11,"viability z-score without drug":1.85,"z-score of drug to no-drug ratio":-0.9,"doxorubicin viability vs non-targeting":0.95,"Call":"inactive"}
{"Target gene":"Inhbb (inhibin beta-B)","combined z-score class":"no change with or without drug","viability z-score with doxorubicin":0.45,"viability z-score without drug":0.84,"z-score of drug to no-drug ratio":0,"doxorubicin viability vs non-targeting":0.98,"Call":"inactive"}
{"Target gene":"Pkia (protein kinase inhibitor, alpha)","combined z-score class":"high cell count without drug only","viability z-score with doxorubicin":0.45,"viability z-score without drug":2.36,"z-score of drug to no-drug ratio":-0.9,"doxorubicin viability vs non-targeting":0.98,"Call":"inactive"}
{"Target gene":"Zfp786 (zinc finger protein 786)","combined z-score class":"no change with or without drug","viability z-score with doxorubicin":-0.34,"viability z-score without drug":-0.51,"z-score of drug to no-drug ratio":0.11,"doxorubicin viability vs non-targeting":0.91,"Call":"inactive"}
{"Target gene":"Ppp4c (protein phosphatase 4, catalytic subunit)","combined z-score class":"low cell count with and without drug","viability z-score with doxorubicin":-2.02,"viability z-score without drug":-2.87,"z-score of drug to no-drug ratio":-0.11,"doxorubicin viability vs non-targeting":0.76,"Call":"inactive"}
{"Target gene":"Wipf2 (WAS/WASL interacting protein family, member 2)","combined z-score class":"low cell count with doxorubicin only","viability z-score with doxorubicin":-2.59,"viability z-score without drug":0,"z-score of drug to no-drug ratio":-2.59,"doxorubicin viability vs non-targeting":0.71,"Call":"active"}
